{"source": "patent US5589335A", "about": "“Hybridization promotion reagents” (Amoco Corporation, priority 1994, dated 1996)", "tested_on": "DNA-RNA hybrid", "test": "RNA:DNA hybrid melting in TMA reagents"}
{"smiles": "C[N+](C)(C)C", "note": "[TMA.TCA, Tetramethyammonium:Trichloroacetate]", "values": [{"measurement": "melting curve width ΔT3/4 - 1/4", "setting": "RNA:DNA hybrid", "result": "about 2 °C"}]}
{"smiles": "C[N+](C)(C)C", "note": "[TMA.SCN, Tetramethylammonium thiocyanate]", "values": [{"measurement": "melting temperature (Td) of DNA-RNA hybrid", "result": "about 60 °C"}]}
